Reference: PubChem BioAssay (NCATS)
The inconclusive results got no clear call from the source; some entries with a clear call stand among them for comparison. Potencies beside an inconclusive call are fits to weak or partial responses and may not hold up. Calls of active or inactive are those of the source. The call rests on the fitted dose curve; in most records, active means well fitted cell-killing curve with a large enough effect; inconclusive means small, poorly fitted or top-dose-only effect, or effect the other way; inactive means no such curve, though single readings can be large or run the other way.

Legend:
[1] = Quantitative High-Throughput drug screen in 47 multiple myeloma cell lines against the NCATS MIPE library collection: JJN3_DSMZ cell viability assay (AID 1918966; further: nearly all actives have a fitted effect of over 50% in size)
How it was run: (§1)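 We plated 500 myeloma cells per well, pinned in MIPE 4.0 compounds, and incubated for 48 hours at 37C. ATP was then quantified with CellTiter-Glo, with DMSO and media-only wells defining 100% and 0%.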

[2] = Quantitative High-Throughput drug screen in 47 multiple myeloma cell lines against the NCATS MIPE library collection: H1112_PLB cell viability assay (AID 1918967; further: nearly all actives have a fitted effect of over 30% in size); details: H1112 myeloma cells viability, ATP luminescence, 48 h; viability: at 45.8 µM (top of the series)
How it was run: as §1

[3] = Quantitative High-Throughput drug screen in 47 multiple myeloma cell lines against the NCATS MIPE library collection: KMS27_JCRB cell viability assay (AID 1918970); details: KMS27 myeloma cells, CellTiter-Glo ATP viability, 48 h; viability (% of DMSO): at 45.8 µM (top of the series) unless noted; further: nearly all actives have a fitted effect of over 30% in size
How it was run: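 ATP-based viability (CellTiter-Glo luminescence) is measured in cells treated 48 h with approved and investigational drugs at 37 °C. Controls are DMSO-only wells for full viability and media-only wells for none.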

[4] = Quantitative High-Throughput drug screen in 47 multiple myeloma cell lines against the NCATS MIPE library collection: KMS12BM_JCRB cell viability assay (AID 1918971); further: nearly all actives have a fitted effect of over 35% in size
How it was run: (§2)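 CellTiter-Glo luminescence (ATP) after 48 h compound exposure, 37C/5% CO2; 500 cells/well; MIPE 4.0 approved/investigational drugs pinned in; DMSO = 100%, media only = 0% viability.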

[5] = Quantitative High-Throughput drug screen in 47 multiple myeloma cell lines against the NCATS MIPE library collection: KMS20_JCRB cell viability assay (AID 1918973); details: CellTiter-Glo ATP, 48 h; viability (% of DMSO): at 45.8 µM (top of the series); further: nearly all actives have a fitted effect of over 45% in size
How it was run: as §1

[6] = Quantitative High-Throughput drug screen in 47 multiple myeloma cell lines against the NCATS MIPE library collection: MMM1_PLB cell viability assay (AID 1918976); further: nearly all actives have a fitted effect of over 35% in size
How it was run: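 Viability after 48 h drug exposure was measured as ATP-dependent luminescence. Cells, 500 per well, sat at 37 °C under 5% CO2; DMSO wells set 100%, media-only wells 0%.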

[7] = Quantitative High-Throughput drug screen in 47 multiple myeloma cell lines against the NCATS MIPE library collection: Karpas25_ECACC cell viability assay (AID 1918968; further: nearly all actives have a fitted effect of over 35% in size); details: Karpas25 myeloma viability, CellTiter-Glo ATP, 48 h; viability (% of control): at 45.8 µM (top of the series)
How it was run: as §1

[8] = Quantitative High-Throughput drug screen in 47 multiple myeloma cell lines against the NCATS MIPE library collection: KMS21BM_JCRB cell viability assay (AID 1918974); details: ATP luminescence, 48 h; viability: at 45.8 µM (top of the series) unless noted
How it was run: as §1

[9] = Quantitative High-Throughput drug screen in 47 multiple myeloma cell lines against the NCATS MIPE library collection: KMS26_JCRB cell viability assay (AID 1918975); details: KMS26 myeloma cells viability, CellTiter-Glo ATP, 48 h; viability (% of DMSO): at 45.8 µM (top of the series); further: nearly all actives have a fitted effect of over 45% in size
How it was run: as §2

[10] = Quantitative High-Throughput drug screen in 47 multiple myeloma cell lines against the NCATS MIPE library collection: KMS12PE_JCRB cell viability assay (AID 1918972); details: KMS12PE myeloma viability, CellTiter-Glo ATP, 48 h; viability: at 45.8 µM (top of the series); further: nearly all actives have a fitted effect of over 30% in size
How it was run: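 qHTS of the MIPE 4.0 collection: 500 myeloma cells/well, 48 h drug exposure at 37C in 5% CO2, then CellTiter-Glo for 5 min at room temperature before luminescence reading.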
Potency means the concentration at half of the fitted maximal effect.

Compound: Clc1cccc(-c2nnnn2Cc2cccnc2)c1Cl
- Potency [1]: inconclusive: 0.0042 µM [rising, full curve, poor fit]
- Potency [2]: inconclusive: 14.8 µM [cytotoxic, partial curve, poor fit]
- Potency [3]: inconclusive: 0.187 µM [cytotoxic, full curve, poor fit]
- Potency [4]: inconclusive: 0.0148 µM [rising, full curve]
- Potency [5]: inactive
- Potency [6]: inconclusive: 0.0066 µM [rising, full curve, poor fit]

Compound: C[C@@H]1C(=O)O[C@H]2CC34[C@H]5C[C@@H](C(C)(C)C)C36[C@H](OC(=O)[C@@H]6O)O[C@@]4(C(=O)O5)[C@]21O (stereo not given in full)
- Potency [1]: inconclusive: 29.6 µM [cytotoxic, single point]
- Potency [7]: inactive
- Potency [3]: inconclusive: 0.0019 µM [cytotoxic, full curve, poor fit]
- Potency [4]: inactive
- Potency [5]: inactive
- Potency [8]: inconclusive: 23.5 µM [rising, partial curve]
- Potency [6]: inconclusive: 0.0012 µM [cytotoxic, full curve, poor fit]

Compound: CC[C@H](C)n1cc(C)c2c(C(=O)NCc3c(C)cc(C)[nH]c3=O)cc(-c3ccc(N4CCNCC4)nc3)cc21
- Potency [1]: inconclusive: 33.2 µM [cytotoxic, single point]
- Potency [2]: inconclusive: 33.2 µM [cytotoxic, single point]
- Potency [3]: inconclusive: 0.0037 µM [rising, full curve, poor fit]
- Potency [4]: inconclusive: 29.6 µM [cytotoxic, single point]
- Potency [5]: active: 18.7 µM
- Potency [8]: inconclusive: 0.0743 µM [rising, full curve, poor fit]
- Potency [9]: inconclusive: 37.2 µM [cytotoxic, single point]
- Potency [6]: inconclusive: 37.2 µM [cytotoxic, single point]

Compound: O=C(CCCCCCC(=O)Nc1ccc([C@H]2O[C@@H](CSc3nc(-c4ccccc4)c(-c4ccccc4)o3)C[C@@H](c3ccc(CO)cc3)O2)cc1)NO
- Potency [1]: active: 13.2 µM
- Potency [2]: active: 13.2 µM
- Potency [8]: inconclusive: 0.296 µM [rising, full curve, poor fit]
- Potency [6]: active: 13.2 µM

Compound: CCOC(=O)C1=C(C)NC2=C(C(=O)CC(C)(C)C2)C1c1ccc(-c2ccccc2)cc1 (stereo not given)
- Potency [1]: active: 18.7 µM
- Potency [2]: inconclusive: 11.8 µM [cytotoxic, partial curve]
- Potency [4]: active: 23.5 µM
- Potency [10]: inconclusive: 1.87 µM [cytotoxic, partial curve, poor fit]
- Potency [5]: inconclusive: 10.5 µM [cytotoxic, partial curve, poor fit]
- Potency [8]: inconclusive: 37.2 µM [rising, partial curve, poor fit]

Compound: CCc1cnn2c(NCc3ccc[n+]([O-])c3)cc(N3CCCC[C@@H]3CCO)nc12
- Potency [1]: active: 0.0118 µM
- Potency [2]: active: 0.0264 µM
- Potency [10]: active: 0.0332 µM
- Potency [5]: active: 0.0209 µM
- Potency [8]: active: 0.0132 µM
- Potency [9]: active: 0.0187 µM

Compound: Nc1ccn([C@@H]2O[C@H](CO)[C@H](O)C2(F)F)c(=O)n1
- Potency [1]: inconclusive: 1.05 µM [cytotoxic, full curve, poor fit]
- Potency [2]: active: 0.0187 µM
- Potency [8]: inconclusive: 33.2 µM [rising, partial curve, poor fit]
- Potency [9]: inconclusive: 0.935 µM [cytotoxic, full curve, poor fit]
- Potency [6]: inconclusive: 3.32 µM [cytotoxic, full curve, poor fit]

Compound: CCOc1cc(C=C2C(=O)N(c3ccccc3)N=C2C)cc(Cl)c1OCC(=O)OC
- Potency [1]: inconclusive: 13.2 µM [cytotoxic, partial curve, poor fit]
- Potency [2]: inconclusive: 7.43 µM [cytotoxic, partial curve, poor fit]
- Potency [4]: inconclusive: 0.0017 µM [rising, full curve, poor fit]
- Potency [10]: inconclusive: 20.9 µM [cytotoxic, partial curve]
- Potency [5]: inconclusive: 13.2 µM [cytotoxic, partial curve, poor fit]
- Potency [8]: inconclusive: 16.6 µM [cytotoxic, partial curve, poor fit]
- Potency [6]: inconclusive: 6.62 µM [cytotoxic, full curve]

Compound: CN(C)CCOc1ccc(-c2nc(-c3ccc4c(c3)CCC4=NO)c(-c3ccncc3)[nH]2)cc1
- Potency [1]: active: 16.6 µM
- Potency [2]: active: 23.5 µM
- Potency [4]: active: 20.9 µM
- Potency [5]: active: 6.62 µM
- Potency [8]: active: 7.43 µM

Compound: CC(C)Oc1cc(Nc2nc(N[C@@H](C)c3ccc(F)cn3)ncc2Cl)[nH]n1
- Potency [1]: active: 20.9 µM
- Potency [2]: inconclusive: 16.6 µM [cytotoxic, partial curve]
- Potency [4]: inconclusive: 33.2 µM [cytotoxic, single point]
- Potency [8]: active: 5.26 µM
- Potency [9]: inconclusive: 26.4 µM [cytotoxic, single point]
- Potency [6]: inconclusive: 33.2 µM [cytotoxic, single point]

Compound: C[C@@H](Oc1cc(-c2cnn(C3CCNCC3)c2)cnc1N)c1c(Cl)ccc(F)c1Cl
- Potency [1]: active: 8.33 µM
- Potency [2]: active: 11.8 µM
- Potency [10]: active: 6.62 µM
- Potency [5]: inconclusive: 0.833 µM [cytotoxic, full curve, poor fit]
- Potency [8]: active: 8.33 µM
- Potency [9]: active: 14.8 µM

Compound: Cc1ccc(NC(=O)Nc2cc(C(F)(F)F)ccc2F)cc1Nc1ccc2c(c1)NC(=O)C2=Cc1ccc[nH]1
- Potency [1]: active: 23.5 µM
- Potency [2]: active: 11.8 µM
- Potency [4]: active: 26.4 µM
- Potency [8]: inconclusive: 13.2 µM [cytotoxic, partial curve, poor fit]
- Potency [9]: active: 37.2 µM

Compound: COc1cc2ncnc(Nc3cccc(Br)c3)c2cc1OC
- Potency [1]: active: 20.9 µM
- Potency [2]: inconclusive: 0.105 µM [cytotoxic, full curve]
- Potency [5]: active: 0.743 µM
- Potency [6]: inconclusive: 0.0021 µM [rising, full curve, poor fit]

Compound: C[C@@H]1C[C@H]2[C@@H]3CCC4=CC(=O)C=C[C@]4(C)[C@@]3(F)[C@@H](O)C[C@]2(C)[C@@]1(O)C(=O)CO
- Potency [1]: inactive
- Potency [2]: inactive
- Potency [3]: inactive
- Potency [4]: inconclusive: 0.0235 µM [rising, full curve, poor fit]
- Potency [5]: active: 0.418 µM
- Potency [9]: inactive
- Potency [6]: inconclusive: 1.05 µM [rising, full curve, poor fit]

Compound: Cc1c(C)c2c(c(C)c1O)CCC(C)(COc1ccc(CC3SC(=O)NC3=O)cc1)O2 (stereo not given)
- Potency [1]: inactive
- Potency [7]: inconclusive: 33.2 µM [cytotoxic, single point]
- Potency [3]: inconclusive: 33.2 µM [cytotoxic, single point]
- Potency [4]: inactive
- Potency [10]: inconclusive: 20.9 µM [cytotoxic, partial curve]
- Potency [5]: inconclusive: 16.6 µM [cytotoxic, partial curve, poor fit]
- Potency [8]: inconclusive: 1.18 µM [rising, full curve]
- Potency [9]: inconclusive: 0.0074 µM [cytotoxic, full curve, poor fit]
- Potency [6]: inconclusive: 0.0012 µM [rising, full curve, poor fit]

Compound: COC(=O)Nc1nc2ccc(C(=O)c3cccs3)cc2[nH]1
- Potency [1]: inconclusive: 1.66 µM [cytotoxic, full curve]
- viability (% of control) [7]: inconclusive: 11.7% [cytotoxic]
- viability (% of DMSO) [3]: inconclusive: 26.2% [cytotoxic]
- viability [10]: inconclusive: 17.5% [cytotoxic]
- Potency [5]: inconclusive: 5.26 µM [cytotoxic, partial curve, poor fit]
- Potency [6]: inconclusive: 0.469 µM [cytotoxic, full curve, poor fit]

Compound: COc1cnc(NS(=O)(=O)c2ccc(N)cc2)nc1
- Potency [1]: inconclusive: 0.0021 µM [rising, full curve]
- Potency [7]: inconclusive: 26.4 µM [cytotoxic, single point]
- Potency [3]: inconclusive: 13.2 µM [cytotoxic, partial curve]
- Potency [4]: inconclusive: 0.0743 µM [rising, full curve, poor fit]
- Potency [5]: inconclusive: 0.0166 µM [cytotoxic, full curve, poor fit]
- Potency [8]: inconclusive: 5.26 µM [cytotoxic, partial curve, poor fit]
- Potency [9]: inactive
- Potency [6]: inconclusive: 0.0209 µM [rising, full curve]

Compound: O=C1NC(=O)C(=Cc2ccc3nccc(-c4ccncc4)c3c2)S1
- Potency [1]: active: 0.0935 µM
- Potency [2]: active: 1.05 µM
- Potency [5]: active: 0.0935 µM
- Potency [8]: active: 0.166 µM

Compound: Nc1ccn([C@@H]2O[C@H](CO)[C@@H](O)C2O)c(=O)n1 (stereo not given in full)
- Potency [1]: inconclusive: 11.8 µM [rising, single point]
- Potency [2]: inconclusive: 7.43 µM [rising, partial curve, poor fit]
- Potency [4]: inactive
- Potency [5]: inconclusive: 3.32 µM [cytotoxic, partial curve, poor fit]
- Potency [8]: inconclusive: 4.69 µM [cytotoxic, full curve, poor fit]
- Potency [9]: inconclusive: 0.003 µM [rising, full curve, poor fit]
- Potency [6]: inconclusive: 0.0012 µM [rising, full curve, poor fit]

Compound: Cc1cc(NC(=O)Nc2ccc(N(C)C)cc2)c2cc(F)cc(F)c2n1
- Potency [1]: inconclusive: 37.2 µM [cytotoxic, single point]
- Potency [2]: inconclusive: 6.62 µM [cytotoxic, partial curve, poor fit]
- Potency [4]: inconclusive: 23.5 µM [cytotoxic, partial curve, poor fit]
- Potency [8]: inconclusive: 8.33 µM [rising, partial curve]
- viability (% of DMSO) [9]: inconclusive: 79.3% [cytotoxic]

Compound: CC(C(C)N1CC(=O)NC(=O)C1)N1CC(=O)NC(=O)C1 (stereo not given)
- Potency [1]: inconclusive: 0.469 µM [cytotoxic, full curve, poor fit]
- Potency [7]: inactive
- Potency [3]: inconclusive: 0.264 µM [rising, full curve]
- Potency [4]: active: 0.59 µM
- Potency [10]: active: 1.32 µM
- Potency [5]: inactive
- Potency [8]: active: 0.332 µM
- Potency [9]: inconclusive: 37.2 µM [cytotoxic, single point]
- Potency [6]: inconclusive: 0.001 µM
